Assay [1] addresses T1, GST-FrzB (M. xanthus) (UniProt P43499).
T1 sequence: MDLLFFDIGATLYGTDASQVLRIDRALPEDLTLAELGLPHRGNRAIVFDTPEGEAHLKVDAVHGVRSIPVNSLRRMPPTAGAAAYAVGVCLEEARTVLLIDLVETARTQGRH
Description: pull-down; GST-affinity chromatography co-purification; E. coli cells expressing each protein mixed one to one and lysed together; 50 mM TrisHCl pH 8, 300 mM NaCl; eluted with 10 mM reduced glutathione.

Assay [2] deals with T2, GST-FrzA (M. xanthus) (UniProt P43498).
T2 sequence: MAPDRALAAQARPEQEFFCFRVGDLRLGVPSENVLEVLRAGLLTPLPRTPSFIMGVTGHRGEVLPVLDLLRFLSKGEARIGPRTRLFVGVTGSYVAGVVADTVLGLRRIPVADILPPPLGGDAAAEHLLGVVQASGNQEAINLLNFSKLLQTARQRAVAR
The assay is described as above.

These are yes or no findings as the source states them, for the method shown. In cells and extracts the contact can be indirect. Some entries that bind do so weakly or less than the wild type. Sequences can lack the tags named with a protein.

B1: 6His-FrzCD (receptor, UniProt P43500 1-417)
chain: MSLDTPNEKPAGKARARKAPASKAGATNAASTSSSTKAITDTLLTVLSGNLQARVPKELVGESGVELAHLLNQVLDQFAASEHRKHVAAQEIDQALDALIGLVREGDLSRWNTTTEDPQLGPLLEGFGKVIETLRTFVREINEAALRLSSSANQVLAASTQHETSSTEQAAAIHETTATMEELKHASAQIAENAGSVARVAEETLGAARAGRGAIGEFIQAMQQIRSDGVAVADSIAKLSKRVERIGTVVEVIDEIADRSDLLALNAALEGSRAGEAGKGFSIVAAEMRRLAENVLDSTKEIKNLITEIREATAAAAGAAEASKSATESGEKLGAVAAQAVEGILAGVQETSDAARVINLATQQQRTATEQVVASMAEIEDVTRQTTQASKQATGAAAELTQLAGRLAELIKRFKAD
As for B1, the binding entry in assay [1] and in assay [2] was “binds” each time.

The values are drawn from PMC6952110, “A divergent CheW confers plasticity to nucleoid-associated chemosensory arrays” (PLoS Genetics, 2019).
